For some assays here: What was measured is the transcript of the gene that encodes the chain shown.
Assays:
tumor vs. normal cells = assay: RNA expression ratio of the FS variant in tumor vs. normal cells; set-up: species or system human; details: for RNA expression ratio: tumor vs normal cells; for RNA (expression ratio of the FS variant in tumor vs. normal cells): Table 2b
tumor cells = assay: RNA extraction and sequencing to verify FS variant expression in tumor cells; set-up: species or system human
[1] = system: Tubo tumor, a mouse breast cancer cell line; assay: RT-PCR confirmation of FS sequence in cDNA of Tubo tumor
[2] = system: human tumor cell lines (MCF-7, SW480, DU-145) vs normal lung, breast, colon cDNA; assay: PCR and inspection of electrophoresis gel band intensities, tumor vs normal cDNA; details: for amplification of FS variant cDNA: MCF-7, SW480, DU-145 tumor lines vs normal lung, breast, colon (FIGS. 7a-7c); for RNA expression in tumor cells versus normal cells: PCR and inspection of electrophoresis gel band intensities
[3] = system: human pancreas tumor samples; assay: Quantitative PCR of FS SMC-1A in fresh pancreas tumor samples

## ARRG (Synthetic or recombinant sequence) [C7orf24]
Tumor vs. normal cells
  RNA expression ratio: 3.6 ×

## CPAEIK (Synthetic or recombinant sequence) [ZWILCH]
Tumor vs. normal cells
  RNA expression ratio: 10.4 ×
Tumor cells
  expression of the FS variant in tumor cells: confirmed

## FS RBM: mouse novopeptide whose upstream in-frame portion aligns with the mouse Rbm14 gene (GRVIECDVVKGSCQDGEAVHWKSAPGGHRAGDPLTLRAVREGAGM; Synthetic or recombinant sequence)
[1]
  presence of sequence in cDNA of Tubo tumor: confirmed by RT-PCR

## FS THAP2: mouse novopeptide whose upstream in-frame portion aligns with the mouse Thap2 gene (FDFCTHIKSLVTFGLFLRGAGCSPSSFLL; Synthetic or recombinant sequence)
[1]
  presence of sequence in cDNA of Tubo tumor: confirmed by RT-PCR

## GCCGIYCHEEPQREDSSI (Synthetic or recombinant sequence) [SMC1L1]
Tumor vs. normal cells
  RNA (expression ratio of the FS variant in tumor vs. normal cells): 98X

## GTGCISAIPH (Synthetic or recombinant sequence) [STYXL1]
Tumor vs. normal cells
  RNA expression ratio: 2.0 ×
[2]
  amplification of FS variant cDNA: present in tumor cells, but not present in cDNA from normal lung, breast and colon
Tumor cells
  expression of the FS variant in tumor cells: verified

## GWLQ (Synthetic or recombinant sequence) [DNPEP]
[2]
  RNA expression in tumor cells versus normal cells: exceeding that in normal cells
Tumor cells
  expression of the FS variant in tumor cells: verified

## IFP (SANRWEQVIFP; Synthetic or recombinant sequence) [DTYMK]
[2]
  RNA expression in tumor cells versus normal cells: exceeding that in normal cells
Tumor cells
  expression of the FS variant in tumor cells: confirmed

## IPKVFLKI (chain 1 EQLACIMEIPKVFLKI; Synthetic or recombinant sequence) [DYRK4]
[2]
  RNA expression in tumor cells versus normal cells: exceeding that in normal cells
Tumor cells
  expression of the FS variant in tumor cells: confirmed

## MPWTILPGRTNSTIPKSSNKKTSQATRGDHWKWSSSRPIVQK (Synthetic or recombinant sequence) [HNRPUL1]
[2]
  amplification of FS variant cDNA: present in tumor cells, but not present in cDNA from normal lung, breast and colon
  RNA expression in tumor cells versus normal cells: exceeding that in normal cells
Tumor cells
  expression of the FS variant in tumor cells: confirmed

## NGSGCSGVYCHEEPQGEDSSV [FS SMC-1A, novopeptide from a frameshift of the SMC1A gene]
[3]; four fresh human pancreas tumor samples
  pancreas tumors overexpressing the FS compared to normal wild type sequence: three of four
[3]; sample Panc-C
  Relative Expression Level: 2.69
[3]; sample Panc-E
  Relative Expression Level: 30.7
[3]; sample Panc-F
  Relative Expression Level: 1.15
[3]; sample Panc-G
  Relative Expression Level: 0.512

## NGSGKSNVMDALSFVMGEKIAN (Synthetic or recombinant sequence) [WT SMC-1A, reference compound]
[3]; sample Panc-C
  Relative Expression Level: 0.094
[3]; sample Panc-E
  Relative Expression Level: 0.852
[3]; sample Panc-F
  Relative Expression Level: 0.26
[3]; sample Panc-G
  Relative Expression Level: 0.696

## NPCQLLKPMVA (Synthetic or recombinant sequence) [KIAA1458]
Tumor vs. normal cells
  RNA (expression ratio of the FS variant in tumor vs. normal cells): 6.3X

## PWMCKKYYRLL (Synthetic or recombinant sequence) [HIP 14]
Tumor vs. normal cells
  RNA (expression ratio of the FS variant in tumor vs. normal cells): 4X

## QFWCLWFCYDKCFWN (Synthetic or recombinant sequence) [BCL2L13]
[2]
  amplification of FS variant cDNA: from three different human tumor cell lines, but not cDNA obtained from normal tissue
  RNA expression in tumor cells versus normal cells: exceeding that in normal cells

## RCAATSMDNSMTSKSCSE (Synthetic or recombinant sequence) [PPP4C]
[2]
  RNA expression in tumor cells versus normal cells: exceeding that in normal cells

## RGPL (Synthetic or recombinant sequence) [COPS6]
Tumor vs. normal cells
  RNA (expression ratio of the FS variant in tumor vs. normal cells): 9.75X

## RKLNILMLLGH (chain 1 HIHTPLLDRKLNILMLLGH; Synthetic or recombinant sequence) [RIPK2]
[2]
  RNA expression in tumor cells versus normal cells: exceeding that in normal cells
Tumor cells
  expression of the FS variant in tumor cells: confirmed

## RMLGPRPPRAARFR (Synthetic or recombinant sequence) [MAP3K10]
[2]
  RNA expression in tumor cells versus normal cells: exceeding that in normal cells

## SAHKESSFDIICQV (Synthetic or recombinant sequence) [CIAPIN1]
Tumor vs. normal cells
  RNA expression ratio: 2.6 ×

## SCWWMPSLLPNIYVLDRLLVHA TKRGEYEPRK (SCWWMPSLLPNIYVLDRLLVHATKRGEYEPRK) [MTCH2]
Tumor vs. normal cells
  RNA (expression ratio of the FS variant in tumor vs. normal cells): 2.2X

From patent publication US9732131B2, “Identification and use of novopeptides for the treatment of cancer” (Calviri Inc., priority 2006, dated 2017)
